The source of these data is PMC10163288.

Some of the results follow.

B1: il2ra_site2_3nfp_sap_23_mot_HHH_b2_02437_000000052_0001_42_56_H_._HHH_b2_04251_af2_0001_0000200003_0000001_0_0001 (protein)
chain: SSSSSIAEEYLRAALELLRLAVEEGDEEAVEEHTELVRQAAHDQGNPEVEERAEELLRELSSSSS
B2: il2ra_site2_3nfp_normal_mot_HHH_b1_03376_000000004_0001_41_55_H_._HHH_b2_00671_af2_0001_0000300009_0000001_0 (protein)
chain: SSSSDEERLRELLEQVEEAVRKGDEEEARKLVEEATQIAYELRDHEVFFELAEILIRLLNSSSSS
B3: il2ra_site1_1z92_sap_20_mot_ems_3hM_2197_000000181_0001_1_19_H_._HHH_b1_03565_0001_0000100001_0000001_0_0001_af2pred_0001_af2pred_1 (protein)
chain: SSSSDEERSLKRLVKTAVELAGLSEEQQEELEELVEKLIEEGVDFEEAARIIDRRALELSESSSS
B4: il2ra_site2_2erj_normal_mot_HHH_b1_03609_af2_000000077_0001_42_55_H_._HHH_b1_01470_af2_0002_0000700020_0000001_0 (protein)
chain: SSSSSEEVEELLKQAEELIERGNPEEAEEVLRKASERAFELNNFELWAKISELLRELARLESSSS
B5: il2ra_site2_2erj_sap_21_mot_HHH_b2_02430_000000062_0001_23_40_H_._HHH_b2_01184_0001_0000200045_0000001_0_0001 (protein)
chain: SSSSSDALHEAYELANRLTHLVARNDPEQFEEVSERLKELAEELQSENLKEIIENLEKWFSSSSS
B6: il2ra_site2_2erj_sap_29_mot_9b841c8fe2e6d1e24304b827c5c38554_0001_1_af2_000000119_0001_36_49_H_._HHH_b2_06645_0001_0000700054_0000001_0_0001 (protein)
chain: SSSSSSSDREERVEELLERAKEVSLHEAFELAVEAQHIAAKNNDEELLRLIREVIEEHSSSSSSS
B7: il2ra_site1_2b5i_sap_14_mot_HHH_b1_01346_af2_000000027_0001_1_20_H_._HHH_b2_00868_0001_0000100002_0000001_0_0001_af2pred_dldesign_0_af2pred (protein)
chain: SSSSSPEVLARIAEARRLHAAGRWREAFDLLNELKKELDAKGADEEAQLVEDAYEALLRESSSSS
B8: il2ra_site2_3nfp_sap_17_mot_HHH_b2_07129_000000128_0001_19_36_H_._HHH_b1_06271_0001_0000200007_0000001_0_0001 (protein)
chain: SSSSDKEERLKQLLEELEELLEEGDYLEFARVAREILRLAEELGDEEAARIVLELFKEAQSSSSS
B9: il2ra_site2_2erj_normal_mot_HHH_b2_01204_af2_000000056_0001_19_34_H_._HHH_b2_01454_0001_0000200016_0000001_0 (protein)
chain: SSSSDEELREAYRLVVEVMHALTRNDEERFEKLLEEARRVAEEFNSESLLEALELLEELGSSSSS
B10: il2ra_site2_2erj_sap_18_mot_cf89365494dbba80ae51c8475d1ce666_0001_af2_000000081_0001_35_48_H_._HHH_b1_00889_0001_0000700034_0000001_0_0001 (protein)
chain: SSSSDALRFTFEILSRLMHLLAEGNEEEAEKLVEEAEEFLEHRDEHLLELLREFFEHLKSLSSSS
B11: il2ra_site1_3nfp_sap_19_mot_HHH_b1_01736_000000293_0001_24_39_H_._HHH_b2_06675_0001_0000200013_0000001_0_0001_af2pred_0001_af2pred (protein)
chain: SSSSDRSREFNRLAREVLELLQEGDKEEAEKVLEELKKHAEELGDPNAKRMVEFLEKKVNSSSSS
B12: il2ra_site2_3nfp_normal_mot_HHH_b1_05627_af2_000000038_0001_43_56_H_._HHH_b1_03590_0001_0000200036_0000001_0 (protein)
chain: SSSSSDKSEEYVRVALELAKRTEDEEVRERSLELARLLAESLNNPELEELVKEVAEELRKSSSSS
B13: il2ra_site2_3nfp_sap_23_mot_HHH_b1_03376_000000004_0001_41_55_H_._HHH_b2_04970_af2_0001_0000600013_0000001_0_0001 (protein)
chain: SSSSDHHEEYLEAALLLLEEAIENRDEHAVKTALELLELAIQSNNDEEAEELLERLEREFGSSSS
B14: il2ra_site1_2b5i_sap_14_mot_HHH_b1_01949_af2_000000041_0001_1_19_H_._HHH_b2_08251_0001_0000100007_0000001_0_0001_af2pred_dldesign_0_af2pred (protein)
chain: SSSSSAELEALREEAERLMRSRDKAGLRELAERLRALYEETRDPEVRRLLAEVERWLELASSSSS
B15: il2ra_site1_3nfp_sap_16_mot_HHH_b2_06429_af2_000000115_0001_1_18_H_._HHH_b1_00844_0001_0000600031_0000001_0_0001_af2pred_0001_af2pred_1 (protein)
chain: SSSSDEESEEVLEEAEKLIRRLLEEGNPLEALRAADEYLRILAKLGDPEAVERLAEFARELSSSS
B16: il2ra_site2_3nfp_normal_mot_HHH_b1_03376_000000004_0001_41_55_H_._HHH_b1_05644_af2_0001_0000900045_0000001_0_af2pred_0001_af2pred (protein)
chain: SSSSSEEEREIKELLEEAQELLKNGNPEEAEKVVLEAALLAFEIRNPELRREAAELLLSIRSSSS
B17: il2ra_site1_3nfp_normal_mot_46d73865503fbedcaf0f3a45445d594c_0001_af2_000000151_0001_1_12_H_._HEEHE_2114_af2_0001_0000200007_0000001_0 (protein)
chain: DEEETFEKAVEELAKVAGVPSVTVEEHNGRFTVTVEGSDSDARNALKLIELAARARGLEVELREG
B18: il2ra_site1_2b5i_sap_20_mot_e6a9f0e24292654465a3c3805779fe2a_0001_1_af2_000000226_0001_15_31_H_._07531ca91c5b0cc5c2ed90a52fa42f9e_0001_1_af2_0001_0000500079_000 … (protein)
chain: SSSSSDAQAIADRALEEARALAAAGRRREALEVLDKAIKEVDALDDEAAADRLEALALELSSSSS
B19: il2ra_site2_2erj_normal_mot_HHH_b2_00636_000000258_0001_1_19_H_._HHH_b1_05458_af2_0001_0000200021_0000001_1 (protein)
chain: SSSDEEEEIEELLKELERLIERNDVARAYEVVERLYELILELNDEEAARILARLTRLVVEISSSS
B20: il2ra_site1_3nfp_normal_mot_ems_3hM_3354_af2_000000165_0001_44_63_H_._HEEHE_2118_af2_0001_0000400032_0000001_0 (protein)
chain: DLLEEFERAVERIAEIAGVPHVEVEVRNGKVHVTFEGDDLQAKAASRIVEESARAFGIKVEVTVE
B21: il2ra_site2_3nfp_sap_24_mot_HHH_b2_02902_af2_000000043_0001_44_57_H_._313f487e3ec02f6225919a247f8b7ae5_0001_1_af2_0001_0000300010_0000001_0_0001 (protein)
chain: SSSSSDVEELLEEAEELTKEGDTEEALQVLLRAAALAWELGDFELFARVNELAEELAKLESSSSS
B22: il2ra_site2_3nfp_sap_22_mot_HHH_b2_00942_af2_000000289_0001_40_57_H_._ems_4hM_4290_0001_0000400052_0000001_0_0001 (protein)
chain: SSSSSEHERLWELSSEAFELLENGNPEEAEEVAEEARELAERLNDRVARRSIEELLRVISSSSSS
B23: il2ra_site2_2erj_sap_20_mot_HHH_eva_0050_af2_000000198_0001_43_62_H_._HHH_b1_02534_0001_0000100006_0000001_0_0001 (protein)
chain: SSSSSEEELRELFELAARLLALLSRGDEEEVQKVLEELEELARKLGSDVAEEVVEMIERELSSSS
B24: il2ra_site1_1z92_normal_mot_3c291a2f2994a8e029b17f9ec7f22732_0001_af2_000000144_0001_36_50_H_._66959ead3e6c57cb3ef8243f3eb758e0_0001_1_af2_0001_0000400035_00000 … (protein)
chain: ALSEEELEEAVEKNDEELLREFIKLLLEDAGDPRLVEQLLKILVKRLGLPPEVLERLRELLKELT

This assay deals with il2ra, P01589. The assay can be described thus: yeast display titration.
Take B1: the “apparent Kd” value was “inactive: no binding seen”.
As to B2, the “apparent Kd” value is “inactive: no binding seen”.
With B3 the entry was “inactive: no binding seen”.
The result for B4 reads “inactive: no binding seen”; that for B5, “inactive: no binding seen”.
For the molecule B6, the “apparent Kd” value was “inactive: no binding seen”.
For B7, the “apparent Kd” value is “inactive: no binding seen”.
The result for B8 reads “inactive: no binding seen”; that for B9, “inactive: no binding seen”; that for B10, “inactive: no binding seen”.
B11: the “apparent Kd” value is “inactive: no binding seen”.
The result for B12 reads “inactive: no binding seen”.
Consider B13, for which the “apparent Kd” value is “inactive: no binding seen”.
With B14 the entry was “inactive: no binding seen”.
With B15 the entry was “inactive: no binding seen”.
On to B16, for which the “apparent Kd” value was “inactive: no binding seen”.
The result for B17 reads “inactive: no binding seen”.
With B18 the entry was “inactive: no binding seen”; with B19, “inactive: no binding seen”.
Turning to B20, the “apparent Kd” value is “inactive: no binding seen”.
For the molecule B21, the “apparent Kd” value is “inactive: no binding seen”.
The result for B22 reads inactive: > 894 nM; that for B23, “inactive: no binding seen”.
With B24 the entry was “inactive: no binding seen”.

A word on the apparent Kd: it is the concentration giving half-maximal binding under the conditions of the assay.
